Experimental data taken from patent US4898855A, “Deuterated analogs of 1,25-dihydroxycholecalciferol” (Hoffman-La Roche Inc., priority 1987, dated 1990).
Read-outs that look alike come from different tables or passages of the source.

System: vitamin D deficient rats
Assay type: in vivo, rat
Details: 3 weeks, vitamin D3 deficient diet
Method: Rats were placed on the following protocol. […]
Ten 3 week old rats were maintained on vitamin D3 deficient diet for 6 weeks.
The following parameters in Table III were evaluated, by means which are conventional in the art, after completion the above treatments. Bone mass is measured by known histomorphometric methods.

[1] = high dose: daily 60 ng 1,25-(OH)2 D3 or 66 ng Hexa ^2 H
[2] = low dose: daily 15 ng 1,25-(OH)2 D3 or 16.5 ng Hexa ^2 H

Compound	Serum PO4^2- [1] [mg/dL]	Serum PO4^2- [2] [mg/dL]
C=C1/C(=C\C=C2/CCC[C@]3(C)[C@@H]([C@H](C)CCCC(C)(C)O)CC[C@@H]23)C[C@@H](O)C[C@@H]1O [1,25-(OH)2 D3, 1α,25-dihydroxycholecalciferol, reference compound]	6.58 ± 0.30	7.61 ± 0.31
[2H]C([2H])([2H])C(O)(CCC[C@@H](C)[C@H]1CC[C@H]2/C(=C/C=C3/C[C@@H](O)C[C@H](O)C3=C)CCC[C@]12C)C([2H])([2H])[2H] [1,25-(OH)2 D3 -Hexa^2 H, 26,26,26,27,27,27-hexadeutero-1α,25-dihydroxycholecalciferol]	6.61 ± 0.36	7.08 ± 0.07
